Reference: PubChem BioAssay AID504764 (Drosophila RNAi Screening Center, 2011)
The deposit covers about 22,000 reagents; this is a random part of those with a known target gene and a result. In the full data, 403 (1.9%) were called active. 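Unnormalised raw counts per well; ratio z-scores behind the hit calls and whether each hit raises or lowers signal are not deposited.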 The numbers tell different reagents against one gene apart. Names joined by + are all predicted targets of the reagent. Not stated in the record: the amount of reagent.

Purpose: 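Genes whose knock-down alters Notch-dependent transcription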 (primary screen)
System: Drosophila Kc167 cells
Knock-down reagent: long dsRNA against Drosophila genes
Duration: about 5 days (4 days dsRNA, then 24 h after transfection)
Treatment: transfection of constitutively active membrane-tethered Notch lacking the extracellular domain, read 24 h later
Measurement: 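Light from a Notch-responsive E(spl)m3 luciferase reporter under active Notch, with control-promoter and no-Notch reporter wells to normalise; raw counts from paired wells a and b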
Direction: induced reporter light, run 1, well a and induced reporter light, run 1, well b: higher = more light from the Notch target reporter with active Notch; control promoter light, run 1, well a and control promoter light, run 1, well b: higher = more light from the viral control promoter (cell number, transfection, viability); uninduced reporter light, run 1, well a: higher = more light from the Notch target reporter without active Notch
Active means: 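Wells with low control signal or poorly matching duplicates excluded; duplicates averaged; per source plate, z beyond ±2 for induced/control log2 ratio or beyond ±1.8 for induced/uninduced marks a hit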
Meaning of the calls: active = modifier hit (raised or lowered Notch signal); inactive = not a hit

gene	reagent no.	induced reporter light, run 1, well a	induced reporter light, run 1, well b	control promoter light, run 1, well a	control promoter light, run 1, well b	uninduced reporter light, run 1, well a	activity call
CG13707 (GeneID 38583)	1	1.78e5	2.17e5	2.63e5	1.94e5	9978	inactive
Acbp4 (GeneID 38781)	1	2.62e5	2.26e5	2.70e5	2.26e5	13490	inactive
CG15465 (GeneID 31434)	1	1.26e5	1.32e5	2.46e5	3.34e5	9928	inactive
RIOK2 (GeneID 43046)	1	1.48e5	1.39e5	2.04e5	1.87e5	13330	inactive
H15 (GeneID 33769)	1	2.10e5	1.67e5	2.66e5	1.78e5	9840	active
CG8360 (GeneID 34122)	1	1.26e5	1.55e5	77305	1.11e5	18440	inactive
PIG-H + Kmn2	1	2.17e5	1.70e5	2.20e5	2.20e5	15190	inactive
CG34051 (GeneID 3885660)	1	1.25e5	1.05e5	93610	1.01e5	9365	inactive
CG8641 (GeneID 38771)	1	1.74e5	1.76e5	2.25e5	1.62e5	9115	inactive
CG3862 (GeneID 33261)	1	2.29e5	2.23e5	2.33e5	2.50e5	18450	inactive
PIG-Wa (GeneID 33425)	1	1.26e5	1.11e5	1.15e5	79030	10435	inactive
CG7483 (GeneID 40987)	1	1.21e5	1.34e5	1.09e5	91200	7315	inactive
CG7483 (GeneID 40987)	2						active
Membrin (GeneID 38614)	1	2.89e5	2.18e5	2.80e5	2.62e5	10635	inactive
CG14017 (GeneID 33787)	1	1.47e5	1.41e5	1.52e5	1.61e5	9105	inactive
Jig (GeneID 41762)	1	3.44e5	2.75e5	2.62e5	2.57e5	21250	inactive
PpD3 (GeneID 49779)	1	90215	1.04e5	90750	54030	6440	inactive
CG9568 (GeneID 34227)	1	1.06e5	1.19e5	79770	1.13e5	18155	inactive
disco-r (GeneID 64875)	1	1.14e5	68940	91815	78475	11505	inactive
disco-r (GeneID 64875)	2	1.03e5	74305	96620	74205	11140	inactive
CG15614 (GeneID 36899)	1	1.62e5	1.21e5	1.35e5	1.39e5	8510	inactive
olf413 (GeneID 40453)	1	2.87e5	4.00e5	3.58e5	3.74e5	23080	inactive
olf413 (GeneID 40453)	2	33565	31170	23275	26860	3920	inactive
olf413 (GeneID 40453)	3	1.47e5	1.22e5	1.20e5	91480	12290	inactive
olf413 (GeneID 40453)	4	1.43e5	93050	1.03e5	85020	11100	inactive
Letm1 (GeneID 37912)	1	52430	63585	38245	48780	3455	inactive
CG31741 (GeneID 35079)	1	1.20e5	1.28e5	1.78e5	1.97e5	9088	active
Raf (GeneID 31221)	1	1.42e5	1.31e5	1.41e5	1.34e5	9870	inactive
Mal-A5 (GeneID 35828)	1	1.77e5	1.52e5	1.54e5	1.67e5	18250	inactive
dy (GeneID 32130)	1	1.30e5	1.41e5	1.85e5	2.15e5	7710	inactive
ATPsynGL (GeneID 34054)	1	1.27e5	1.43e5	83995	1.15e5	20920	inactive
CG6712 (GeneID 34631)	1	2.96e5	2.80e5	2.02e5	2.24e5	16365	inactive
Vha100-5 (GeneID 34587)	1	1.02e5	1.30e5	69920	1.06e5	17290	inactive
png (GeneID 31084)	1	1.37e5	1.21e5	2.36e5	2.48e5	9090	inactive
S-Lap4 (GeneID 326188)	1	2.13e5	1.39e5	2.43e5	2.16e5	8900	inactive
zen2 (GeneID 40827)	1	94315	81460	57365	76400	7600	inactive
alpha-Est3 (GeneID 40907)	1	1.16e5	1.20e5	94330	87235	10425	inactive
CG6034 (GeneID 39974)	1	1.74e5	1.44e5	2.34e5	1.84e5	6280	inactive
CG2533 (GeneID 32110)	1	1.16e5	87245	1.02e5	1.28e5	6225	inactive
CG31688 + CG31687	1	28665	28360	19885	26145	2820	inactive
APC7 (GeneID 31594)	1	1.93e5	1.65e5	2.16e5	1.85e5	11665	inactive
CG3356 (GeneID 37876)	1	1.98e5	1.83e5	1.55e5	1.76e5	13070	inactive
Ir47a (GeneID 36095)	1	1.78e5	2.31e5	2.84e5	2.91e5	19585	inactive
CG11069 (GeneID 42976)	1	1.79e5	1.98e5	2.46e5	2.38e5	13475	inactive
lectin-24Db (GeneID 53550)	1	99885	1.06e5	1.07e5	1.17e5	7505	inactive
Jon99Ci (GeneID 43545)	1	1.24e5	1.30e5	1.85e5	1.63e5	10075	inactive
CG12320 (GeneID 42189)	1	2.04e5	1.51e5	2.19e5	2.16e5	12400	inactive
CG5676 (GeneID 34368)	1	1.01e5	1.14e5	62110	82465	13680	inactive
CstF50 (GeneID 43734)	1	1.03e5	1.17e5	1.07e5	1.18e5	5005	inactive
CG6479 (GeneID 39930)	1	87570	1.11e5	58800	90040	8215	inactive

3 entries from above, limited to “control promoter light, run 1, well b”.
Jig (GeneID 41762): 2.57e5
PpD3 (GeneID 49779): 54030
CG9568 (GeneID 34227): 1.13e5
